Publication PMC12177104
These are yes or no findings as the source states them, for the method shown. Binding seen in cells or lysates may run through a third protein. Some binding calls cover weakened binding; strength is not graded here. For part of these data: Where a sequence is shown, tags or fusion partners need not be part of it.

The chains behind the UniProt entries cited, without tags or fusion partners.
UniProt P49841: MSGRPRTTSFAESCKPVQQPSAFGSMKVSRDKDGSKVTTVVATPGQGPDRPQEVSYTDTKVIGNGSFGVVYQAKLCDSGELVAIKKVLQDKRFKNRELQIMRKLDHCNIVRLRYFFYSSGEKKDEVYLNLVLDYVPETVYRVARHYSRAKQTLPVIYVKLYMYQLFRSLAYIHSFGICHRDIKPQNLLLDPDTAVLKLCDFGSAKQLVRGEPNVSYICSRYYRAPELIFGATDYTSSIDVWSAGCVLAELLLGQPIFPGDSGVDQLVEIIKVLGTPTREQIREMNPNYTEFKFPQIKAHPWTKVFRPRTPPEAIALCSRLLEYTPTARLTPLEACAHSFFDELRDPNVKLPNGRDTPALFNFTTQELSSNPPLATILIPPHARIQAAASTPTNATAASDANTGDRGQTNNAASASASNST
UniProt P35579: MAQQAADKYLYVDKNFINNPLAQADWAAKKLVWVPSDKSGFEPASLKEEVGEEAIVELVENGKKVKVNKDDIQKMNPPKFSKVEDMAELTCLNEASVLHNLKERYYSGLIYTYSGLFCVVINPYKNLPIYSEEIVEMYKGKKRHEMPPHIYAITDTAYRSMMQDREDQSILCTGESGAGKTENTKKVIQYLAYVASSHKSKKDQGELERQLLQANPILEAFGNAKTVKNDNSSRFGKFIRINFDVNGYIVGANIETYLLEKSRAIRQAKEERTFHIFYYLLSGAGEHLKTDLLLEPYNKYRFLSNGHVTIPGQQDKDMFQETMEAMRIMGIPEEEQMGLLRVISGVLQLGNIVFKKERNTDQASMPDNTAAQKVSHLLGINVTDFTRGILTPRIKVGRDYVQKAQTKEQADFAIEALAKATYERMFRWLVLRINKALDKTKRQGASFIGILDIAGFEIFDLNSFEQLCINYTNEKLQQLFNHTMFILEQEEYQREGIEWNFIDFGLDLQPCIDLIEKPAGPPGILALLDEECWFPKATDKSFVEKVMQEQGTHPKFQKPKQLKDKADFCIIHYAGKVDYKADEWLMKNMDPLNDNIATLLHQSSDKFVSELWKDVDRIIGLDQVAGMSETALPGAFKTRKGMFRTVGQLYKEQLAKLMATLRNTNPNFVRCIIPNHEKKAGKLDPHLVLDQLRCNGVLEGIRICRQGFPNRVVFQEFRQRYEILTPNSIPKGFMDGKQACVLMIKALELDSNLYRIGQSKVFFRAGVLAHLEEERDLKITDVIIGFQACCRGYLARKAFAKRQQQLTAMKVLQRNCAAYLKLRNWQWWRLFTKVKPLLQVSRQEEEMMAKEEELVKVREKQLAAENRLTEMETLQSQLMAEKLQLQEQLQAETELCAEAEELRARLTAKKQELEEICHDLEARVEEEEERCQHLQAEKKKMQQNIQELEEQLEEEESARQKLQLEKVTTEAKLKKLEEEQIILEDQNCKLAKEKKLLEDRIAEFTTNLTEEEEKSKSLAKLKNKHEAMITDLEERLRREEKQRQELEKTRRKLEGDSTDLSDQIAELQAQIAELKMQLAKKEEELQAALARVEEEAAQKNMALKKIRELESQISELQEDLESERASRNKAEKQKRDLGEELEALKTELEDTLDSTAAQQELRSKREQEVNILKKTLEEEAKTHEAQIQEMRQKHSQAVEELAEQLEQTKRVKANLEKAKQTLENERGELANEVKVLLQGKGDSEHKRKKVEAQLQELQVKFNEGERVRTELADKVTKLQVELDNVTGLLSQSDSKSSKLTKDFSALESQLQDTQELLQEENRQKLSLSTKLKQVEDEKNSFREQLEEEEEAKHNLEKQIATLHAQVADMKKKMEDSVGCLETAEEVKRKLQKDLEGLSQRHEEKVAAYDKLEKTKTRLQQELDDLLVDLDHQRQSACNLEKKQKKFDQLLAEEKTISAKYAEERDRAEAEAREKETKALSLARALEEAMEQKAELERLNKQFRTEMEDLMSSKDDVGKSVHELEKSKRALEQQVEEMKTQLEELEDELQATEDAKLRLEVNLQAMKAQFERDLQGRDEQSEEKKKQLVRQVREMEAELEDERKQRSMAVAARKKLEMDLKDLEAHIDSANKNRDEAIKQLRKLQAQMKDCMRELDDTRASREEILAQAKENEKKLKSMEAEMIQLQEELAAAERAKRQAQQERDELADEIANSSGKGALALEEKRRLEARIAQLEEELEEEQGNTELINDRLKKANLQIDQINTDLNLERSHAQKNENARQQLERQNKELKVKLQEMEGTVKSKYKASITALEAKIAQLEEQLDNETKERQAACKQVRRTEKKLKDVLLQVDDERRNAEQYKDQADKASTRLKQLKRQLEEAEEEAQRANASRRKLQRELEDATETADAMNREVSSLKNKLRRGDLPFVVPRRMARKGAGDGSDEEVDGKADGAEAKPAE

Assays:
[1] = target: T1, Phosphoglycerate kinase 1 (PGK1) (UniProt P00558); experiment: co-IP; ESCC cell lysates, precipitating antibody not stated (Fig 4L, Fig 5N); EBC lysis buffer, Protein-A Sepharose, NETN washes; immunoblot; also under hypoxia, which the paper says enhanced the PGK1-MYH9 interaction
T1 sequence: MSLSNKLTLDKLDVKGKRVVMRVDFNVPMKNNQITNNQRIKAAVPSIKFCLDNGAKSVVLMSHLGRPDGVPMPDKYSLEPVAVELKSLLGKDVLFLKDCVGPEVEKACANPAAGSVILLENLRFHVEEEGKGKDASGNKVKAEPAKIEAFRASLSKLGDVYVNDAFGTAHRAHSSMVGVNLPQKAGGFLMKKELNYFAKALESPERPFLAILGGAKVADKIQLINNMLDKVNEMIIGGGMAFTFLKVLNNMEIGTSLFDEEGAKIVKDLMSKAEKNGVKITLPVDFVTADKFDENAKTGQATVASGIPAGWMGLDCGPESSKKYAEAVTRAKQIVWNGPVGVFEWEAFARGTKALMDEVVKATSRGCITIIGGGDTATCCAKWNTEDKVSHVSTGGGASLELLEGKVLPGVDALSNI

PGK1-Flag = target: T2, PGK1-Flag (UniProt P00558); experiment: co-IP; Flag-tagged constructs in KYSE150 cells; IP with Flag antibodies (stated for Fig 4D, E); lysis in EBC buffer (50 mM Tris-HCl pH 8.0, 120 mM NaCl, 0.5% NP-40), 4 h at 4°C, Protein-A Sepharose, washes in NETN buffer; immunoblot
T2 sequence: T1 sequence

Row | binding [1] | binding (PGK1-Flag) | Substance
1 | binds | – | GSK3β (from UniProt P49841 1-420) (enzyme)
2 | binds | binds | myosin-9 (MYH9), heavy chain of non-muscle myosin IIA (from UniProt P35579 1-1960)
